# Data taken from PubChem BioAssay (NCATS).
# The inconclusive results got no clear call from the source; some entries with a clear call stand among them for comparison. Potencies beside an inconclusive call are fits to weak or partial responses and may not hold up. Calls of active or inactive are those of the source. Calls come from the whole dose curve; as a rule, active = well fitted curve in the direction sought with a large enough effect; inconclusive = small, poorly fitted or top-dose-only effect, or another doubt; inactive = no such curve, though single readings can be large; an effect the other way counts as inactive or inconclusive.
# Assays:
# [1] = Quantitative High-Throughput drug screen in 47 multiple myeloma cell lines against the NCATS MIPE library collection: JIM1_ECACC cell viability assay (AID 1918964); conditions: JIM1 myeloma viability, CellTiter-Glo ATP luminescence, 48 h; viability (% of DMSO): at 45.8 µM (top of the series)
# Outline: (§1)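 Inhibition of cell viability is measured here. Each line was plated at 500 cells per well, treated with MIPE 4.0 drugs, kept 48 hours at 37C, then assayed for ATP content by CellTiter-Glo luminescence.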
# [2] = Quantitative High-Throughput drug screen in 47 multiple myeloma cell lines against the NCATS MIPE library collection: JJN3_DSMZ cell viability assay (AID 1918966; note: nearly all actives have a fitted effect of over 50% in size); conditions: JJN3 myeloma cells viability, CellTiter-Glo ATP, 48 h; viability, % of DMSO: at 45.8 µM (top of the series)
# Outline: as §1
# [3] = Quantitative High-Throughput drug screen in 47 multiple myeloma cell lines against the NCATS MIPE library collection: H1112_PLB cell viability assay (AID 1918967; note: nearly all actives have a fitted effect of over 30% in size); conditions: H1112 myeloma cells viability, ATP luminescence, 48 h; viability: at 45.8 µM (top of the series)
# Outline: as §1
# [4] = Quantitative High-Throughput drug screen in 47 multiple myeloma cell lines against the NCATS MIPE library collection: Karpas25_ECACC cell viability assay (AID 1918968; note: nearly all actives have a fitted effect of over 35% in size); conditions: Karpas25 myeloma viability, CellTiter-Glo ATP, 48 h; viability (% of control): at 45.8 µM (top of the series)
# Outline: as §1
# [5] = Quantitative High-Throughput drug screen in 47 multiple myeloma cell lines against the NCATS MIPE library collection: KMS27_JCRB cell viability assay (AID 1918970); conditions: KMS27 myeloma cells, CellTiter-Glo ATP viability, 48 h; viability (% of DMSO): at 45.8 µM (top of the series); note: nearly all actives have a fitted effect of over 30% in size
# Outline: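 KMS27_JCRB myeloma cells, 500 per well, exposed 48 h at 37 C, 5% CO2 to MIPE 4.0 compounds. Viability from ATP by CellTiter-Glo luminescence, normalized to DMSO (100%) and medium-only (0%) wells.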
# [6] = Quantitative High-Throughput drug screen in 47 multiple myeloma cell lines against the NCATS MIPE library collection: KMS20_JCRB cell viability assay (AID 1918973); conditions: CellTiter-Glo ATP, 48 h; viability (% of DMSO): at 45.8 µM (top of the series); note: nearly all actives have a fitted effect of over 45% in size
# Outline: as §1
# [7] = Quantitative High-Throughput drug screen in 47 multiple myeloma cell lines against the NCATS MIPE library collection: KMS26_JCRB cell viability assay (AID 1918975); conditions: KMS26 myeloma cells viability, CellTiter-Glo ATP, 48 h; viability (% of DMSO): at 45.8 µM (top of the series); note: nearly all actives have a fitted effect of over 45% in size
# Outline: (§2)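 Relative luminescence from CellTiter-Glo served as the viability signal, referenced to DMSO-treated (100%) and cell-free medium (0%) controls. Treatment lasted 48 hours at 37C with 500 cells per well.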
# [8] = Quantitative High-Throughput drug screen in 47 multiple myeloma cell lines against the NCATS MIPE library collection: MOLP8_DSMZ cell viability assay (AID 1918977); conditions: MOLP8 myeloma viability, CellTiter-Glo ATP luminescence, 48 h; viability (% of control): at 45.8 µM (top of the series); note: nearly all actives have a fitted effect of over 45% in size
# Outline: (§3)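 Myeloma cells (500/well) treated with MIPE 4.0 compounds for 48 h at 37 °C, 5% CO2. Viability read as ATP via CellTiter-Glo luminescence after 5 min at RT; DMSO-only wells = 100%, media-only = 0% viability.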
# [9] = Quantitative High-Throughput drug screen in 47 multiple myeloma cell lines against the NCATS MIPE library collection: OCIMY1_PLB cell viability assay (AID 1918979); note: nearly all actives have a fitted effect of over 35% in size
# Outline: as §3
# [10] = Quantitative High-Throughput drug screen in 47 multiple myeloma cell lines against the NCATS MIPE library collection: MM1S_ATCC cell viability assay (AID 1918980); note: nearly all actives have a fitted effect of over 45% in size
# Outline: as §3
# [11] = Quantitative High-Throughput drug screen in 47 multiple myeloma cell lines against the NCATS MIPE library collection: LP1_DSMZ cell viability assay (AID 1918982); note: nearly all actives have a fitted effect of over 35% in size
# Outline: as §3
# [12] = Quantitative High-Throughput drug screen in 47 multiple myeloma cell lines against the NCATS MIPE library collection: KMS21BM_JCRB cell viability assay (AID 1918974); conditions: ATP luminescence, 48 h; viability: at 45.8 µM (top of the series) unless noted
# Outline: as §1
# [13] = Quantitative High-Throughput drug screen in 47 multiple myeloma cell lines against the NCATS MIPE library collection: MMM1_PLB cell viability assay (AID 1918976); note: nearly all actives have a fitted effect of over 35% in size
# Outline: as §3
# [14] = Quantitative High-Throughput drug screen in 47 multiple myeloma cell lines against the NCATS MIPE library collection: NCIH929_DSMZ cell viability assay (AID 1918978); note: nearly all actives have a fitted effect of over 35% in size
# Outline: as §3
# [15] = Quantitative High-Throughput drug screen in 47 multiple myeloma cell lines against the NCATS MIPE library collection: KMS28PE_JCRB cell viability assay (AID 1918983); note: nearly all actives have a fitted effect of over 35% in size
# Outline: as §3
# [16] = Quantitative High-Throughput drug screen in 47 multiple myeloma cell lines against the NCATS MIPE library collection: INA6_PLB cell viability assay (AID 1918965; note: nearly all actives have a fitted effect of over 55% in size); conditions: INA6 myeloma viability, CellTiter-Glo ATP luminescence, 48 h; viability (% of control): at 45.8 µM (top of the series)
# Outline: (§4)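 Myeloma cells (500 per well) were exposed to MIPE 4.0 compounds by pin transfer and incubated 48 hours at 37C, 5% CO2. Viability was read as ATP by CellTiter-Glo luminescence, normalised to DMSO (100%) and media-only (0%) wells.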
# [17] = Quantitative High-Throughput drug screen in 47 multiple myeloma cell lines against the NCATS MIPE library collection: KMS12BM_JCRB cell viability assay (AID 1918971); note: nearly all actives have a fitted effect of over 35% in size
# Outline: as §2
# [18] = Quantitative High-Throughput drug screen in 47 multiple myeloma cell lines against the NCATS MIPE library collection: KMS12PE_JCRB cell viability assay (AID 1918972); conditions: KMS12PE myeloma viability, CellTiter-Glo ATP, 48 h; viability: at 45.8 µM (top of the series); note: nearly all actives have a fitted effect of over 30% in size
# Outline: as §4
# [19] = Quantitative High-Throughput drug screen in 47 multiple myeloma cell lines against the NCATS MIPE library collection: MM1R_ATCC cell viability assay (AID 1918981); note: nearly all actives have a fitted effect of over 35% in size
# Outline: as §3
# Potency is the fitted concentration of half-maximal effect.
compound,measurement,setting,value
CCOc1ccc(Nc2nc(-c3c(C)nc4ccccn34)cs2)cc1,viability (% of DMSO),[1],inconclusive: 23.2% [cytotoxic]
same,Potency,[2],active: 5.26 µM
same,Potency,[3],"inconclusive: 0.0209 µM [cytotoxic, full curve]"
same,Potency,[4],"inconclusive: 0.0332 µM [cytotoxic, full curve]"
same,viability (% of DMSO),[5],inconclusive: 30.6% [cytotoxic]
same,Potency,[6],inactive
same,Potency,[7],active: 0.332 µM
same,Potency,[8],"inconclusive: 33.2 µM [cytotoxic, single point]"
same,Potency,[9],"inconclusive: 0.0033 µM [cytotoxic, full curve]"
same,Potency,[10],"inconclusive: 0.0026 µM [cytotoxic, full curve, poor fit]"
same,Potency,[11],"inconclusive: 0.0053 µM [cytotoxic, full curve]"
CN[C@@H](C)C(=O)N[C@H]1CN(C(=O)CC(C)C)CC[C@H]2CC[C@@H](C(=O)NC(c3ccccc3)c3ccccc3)N2C1=O,Potency,[1],"inconclusive: 2.96 µM [cytotoxic, full curve]"
same,Potency,[2],"inconclusive: 23.5 µM [cytotoxic, single point]"
same,Potency,[3],"inconclusive: 3.72 µM [cytotoxic, full curve]"
same,Potency,[4],"inconclusive: 6.62 µM [cytotoxic, partial curve]"
same,Potency,[5],"inconclusive: 0.332 µM [cytotoxic, full curve]"
same,Potency,[6],"inconclusive: 5.9 µM [cytotoxic, partial curve, poor fit]"
same,Potency,[12],"inconclusive: 3.72 µM [cytotoxic, full curve, poor fit]"
same,Potency,[7],"inconclusive: 0.743 µM [rising, partial curve, poor fit]"
same,Potency,[13],"inconclusive: 0.0083 µM [rising, full curve, poor fit]"
same,Potency,[8],inactive
same,Potency,[14],active: 11.8 µM
same,Potency,[9],"inconclusive: 6.62 µM [rising, partial curve, poor fit]"
same,Potency,[11],"inconclusive: 7.43 µM [rising, single point]"
same,Potency,[15],"inconclusive: 37.2 µM [cytotoxic, single point]"
CN(N=O)C(=O)N[C@H]1C(O)OC(CO)[C@@H](O)[C@H]1O (stereo not given in full),Potency,[1],"inconclusive: 37.2 µM [rising, single point]"
same,Potency,[16],"inconclusive: 4.18 µM [cytotoxic, full curve, poor fit]"
same,Potency,[4],inactive
same,Potency,[5],inconclusive: 0.001 µM [cytotoxic]
same,Potency,[17],"inconclusive: 0.0015 µM [rising, full curve]"
same,Potency,[18],"inconclusive: 0.0026 µM [rising, full curve, poor fit]"
same,Potency,[6],inactive
same,Potency,[12],"inconclusive: 0.166 µM [rising, full curve, poor fit]"
same,Potency,[7],"inconclusive: 2.09 µM [rising, partial curve]"
same,Potency,[13],"inconclusive: 0.059 µM [rising, full curve, poor fit]"
same,Potency,[8],inactive
same,Potency,[9],"inconclusive: 0.0469 µM [rising, full curve, poor fit]"
same,Potency,[10],"inconclusive: 0.003 µM [rising, full curve, poor fit]"
same,Potency,[19],"inconclusive: 0.0015 µM [rising, full curve, poor fit]"
same,Potency,[11],inactive
same,Potency,[15],"inconclusive: 0.0105 µM [rising, full curve]"
COCCOC(=O)C1=C(C)NC2=C(C(=O)CC(c3ccccc3OC)C2)C1c1cccc(O)c1 (stereo not given),Potency,[1],active: 9.35 µM
same,Potency,[2],"inconclusive: 0.372 µM [cytotoxic, full curve, poor fit]"
same,Potency,[3],"inconclusive: 16.6 µM [cytotoxic, partial curve]"
same,Potency,[5],"inconclusive: 6.62 µM [cytotoxic, partial curve]"
same,Potency,[18],"inconclusive: 10.5 µM [cytotoxic, partial curve]"
same,Potency,[7],active: 8.33 µM
same,Potency,[8],"inconclusive: 7.43 µM [cytotoxic, partial curve, poor fit]"
same,Potency,[14],"inconclusive: 4.18 µM [cytotoxic, partial curve]"
same,Potency,[10],active: 16.6 µM
same,Potency,[19],"inconclusive: 16.6 µM [cytotoxic, partial curve]"
COc1cc2c(cc1Cc1cccc(Cl)c1F)c(=O)c(C(=O)O)cn2[C@H](CO)C(C)C,Potency,[1],"inconclusive: 33.2 µM [cytotoxic, partial curve, poor fit]"
same,Potency,[2],active: 16.6 µM
same,Potency,[3],"inconclusive: 23.5 µM [cytotoxic, single point]"
same,Potency,[5],"inconclusive: 37.2 µM [cytotoxic, single point]"
same,Potency,[17],active: 6.62 µM
same,Potency,[18],"inconclusive: 33.2 µM [cytotoxic, single point]"
same,Potency,[6],"inconclusive: 14.8 µM [cytotoxic, partial curve, poor fit]"
same,Potency,[12],"inconclusive: 9.35 µM [rising, full curve]"
same,Potency,[7],active: 20.9 µM
same,Potency,[9],"inconclusive: 33.2 µM [cytotoxic, single point]"
same,Potency,[10],active: 16.6 µM
same,Potency,[19],"inconclusive: 33.2 µM [cytotoxic, single point]"
same,Potency,[11],"inconclusive: 8.33 µM [cytotoxic, partial curve]"
same,Potency,[15],"inconclusive: 11.8 µM [cytotoxic, partial curve]"

# Looked up one by one from the entries so far, 5 records:
compound,measurement,setting,value
COCCOC(=O)C1=C(C)NC2=C(C(=O)CC(c3ccccc3OC)C2)C1c1cccc(O)c1 (stereo not given),Potency,[18],"inconclusive: 10.5 µM [cytotoxic, partial curve]"
CCOc1ccc(Nc2nc(-c3c(C)nc4ccccn34)cs2)cc1,Potency,[6],inactive
COc1cc2c(cc1Cc1cccc(Cl)c1F)c(=O)c(C(=O)O)cn2[C@H](CO)C(C)C,Potency,[1],"inconclusive: 33.2 µM [cytotoxic, partial curve, poor fit]"
same,Potency,[11],"inconclusive: 8.33 µM [cytotoxic, partial curve]"
COCCOC(=O)C1=C(C)NC2=C(C(=O)CC(c3ccccc3OC)C2)C1c1cccc(O)c1 (stereo not given),Potency,[7],active: 8.33 µM
